About 210 (0.4%) of roughly 52,000 sequences were called active.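 The calls were made as follows: active = gene whose silencing raises cell survival under the drug, median off-target-corrected z-score across its silencing RNAs 2 or more; inactive = the rest.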 The list shows a part of the results.
Test: Resistance to Poly (ADP-Ribose) Polymerase inhibitor: Gene Identification via Genome-wide siRNA Screen
Conditions: mouse BRCA2 R2336H ES cells, olaparib, CellTiter-Glo viability; active compounds read high
Summary of the method: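 Mouse BRCA2 R2336H ES cells were reverse-transfected with siRNA (20 nM final), treated at 48 h with 500 nM olaparib, and read by CellTiter-Glo after 72 h. Scores: MAD-based z per siRNA, median per gene, seed off-target correction.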
With GGAUAUUCAAAUGGGUGCCTT against Bcl7b the z-score was inactive: -0.189.
In the case of CCUUCAUUAACUGUGCCUATT against Slc7a7, the z-score is reported as inactive: -0.948.
In the case of GGAAGGAGGGUAUGUGGUUTT against Lgals9, the z-score is reported as inactive: -0.503.
For GCAUGUUUUCCACAGCGAUTT against V1rb9, the z-score was inactive: 0.966.
With GGAAACCAGAGAACAAAACTT against Pmp22 the z-score was inactive: 0.0812.
For GCAGAUACCAUGAUACAGUTT against Usp49, the z-score was inactive: -0.0899.
With CCUGUCAUCACACUCGAGGTT against Coro6 the z-score was inactive: -0.632.
In the case of “GGAAGACAUUGUCUUGUUUTT against C330043M08”, the z-score is reported as inactive: -0.171.
With GGUGUCAUUAGCUUUACUUTT against Arcp the z-score was inactive: 1.95.
With GCUGACCUUAAAUCCUGACTT against Pgpep1 the z-score was inactive: 0.496.
In the case of CCAUCCUCCUACUCGUUAGTT against V1rf5, the z-score is reported as inactive: 0.725.
For CCCAAAACGGAAUAAGCUATT against Dusp8, the z-score was inactive: 0.475.
In the case of GGCAGCUCUUACAACAGUATT against Htr3b, the z-score is reported as inactive: 2.21.
For GGAGGACUUAGAGAGUAUGTT against Ctdp1, the z-score was inactive: 0.246.
In the case of GGAGAUGGAAGUAAUUUUUTT against Plk4, the z-score is reported as inactive: -0.148.
In the case of GACAUAAGCGGUAACAUCATT against Gltp, the z-score is reported as inactive: 3.45.
In the case of GGCCCUCUGAGAUUAAUGUTT against AY078069, the z-score is reported as inactive: 0.56.
For “GGACCUUGGAUUGACAGGUTT against 1300004G08Rik”, the z-score was inactive: 0.185.
For “GCGUGGUGUUGACUAUGAGTT against 0610039N19Rik”, the z-score was inactive: 0.841.
For CGCCUGACUUCGUGUAUUUTT against Prrg2, the z-score was inactive: -0.54.
For UUCGCUCUUGGUCCCUUCATT against Olfr1322, the z-score was inactive: -1.91.
For ACAAAGUCGCCUUCUUCCGTT against Gpr113, the z-score was inactive: -1.33.
With GGGUGACAUCAUGACAGUGTT against Bcar1 the z-score was inactive: -2.09.
In the case of GGAGUUGUGUCCCAGAUUGTT against BC046386, the z-score is reported as inactive: 1.23.
With “GACUUAUAUUCCUCCAUCUTT against E330013P04Rik” the z-score was inactive: -0.223.
In the case of GUGUAGUGAUCAAUAGAUCTT against LOC432823, the z-score is reported as inactive: 0.322.
In the case of GGUCAAGCCUUCCUUUUCUTT against Cldn23, the z-score is reported as inactive: 0.714.
With “GGACCAAAUCCUCUGAUUCTT against D030060M11Rik” the z-score was inactive: 0.827.
With “GGCUGCAUAAAGGUGUUGATT against D12Ertd553e” the z-score was inactive: -0.027.
For GCAAAUGAGAGGUCUGUUGTT against Olfr1024, the z-score was inactive: -1.03.
In the case of GGAGAUCAAAAACAGCUUUTT against Tob1, the z-score is reported as inactive: -1.14.
For GGAUGAAGGUGCUUUUAAATT against Gnrhr, the z-score was inactive: 0.802.
With GGCCAAUUCCAGUGAGAUGTT against Gluld1 the z-score was inactive: -0.135.
With CGGGCAUAUUGAUGUUAAATT against Fech the z-score was inactive: 0.732.
With GCCGAUCCAGAUUAUCAACTT against Dscr3 the z-score was inactive: 1.09.
For GAGACAAUGCAGCAAAAUCTT against Gm839, the z-score was inactive: 2.47.
For GCCCUUUUGCCUCUGAACUTT against Capg, the z-score was inactive: 0.386.
For CGAACCUACAGAGCUCAUGTT against Rpl17, the z-score was inactive: -2.32.
With CCAGAAUUGUUGUUUAUUCTT against Rbbp4 the z-score was inactive: 1.
In the case of GGAACUAACGGAAUUACUGTT against Arl3, the z-score is reported as inactive: -1.87.
For GGAUCCUGUGGCUAAAGAGTT against BC036563, the z-score was inactive: -0.364.
For GGUUCAGAACAAAAUCUACTT against Cd209d, the z-score was inactive: 0.517.
For “GGAAUAAGGCGAGUUGGAATT against 1200009K13Rik”, the z-score was inactive: -2.8.
In the case of GGCUAAUGUGCUUUCCCAUTT against Olfr643, the z-score is reported as inactive: 2.29.
With CGAGGCACUUCUCACUCAUTT against Cyp2c54 the z-score was inactive: -0.86.
For “GGAGAAGUGACUUUUUCGUTT against 1700056O17Rik”, the z-score was inactive: 0.582.
With GAGCACAGUGCACGACCAATT against Mcfd2 the z-score was inactive: -0.416.
For GGAAGUUGAGAGCUUAAAGTT against Pank3, the z-score was inactive: 0.688.
With CGCGCAGUGAAUAGCCUUCTT against AI413782 the z-score was inactive: -0.46.
For “GGGCAAUGUUCAGACUCUCTT against D930050H05Rik”, the z-score was inactive: -0.248.
In the case of “GGCUCGGACCAAAAAAAUUTT against 5730528L13Rik”, the z-score is reported as inactive: -0.283.
With GGGACUUUCGUAAUAAACCTT against Lman1 the z-score was inactive: 1.16.
With UUUUUUUACUCAGUCCUCATT against Olfr538 the z-score was inactive: 1.88.
For “GCUAGCAACAUCAUUGAUGTT against 2400001E08Rik”, the z-score was inactive: -0.72.
With GCGUAUUUAUCAGAGUUCATT against BC028975 the z-score was inactive: 0.937.
For GGAAACAUAACCUUCAAUGTT against Wdr3, the z-score was inactive: -0.336.
With “GGAGCUGAAGACCACAAAGTT against 1700021K02Rik” the z-score was inactive: -0.128.
With GGAAUCCAGCUUCGAUGUCTT against Ciapin1 the z-score was inactive: -0.448.
In the case of “GCUCAGUUUCUCAUGAAACTT against 5830405N20Rik”, the z-score is reported as inactive: 0.717.
With GGGCAAUGUGCUACACCAUTT against Olfr640 the z-score was inactive: 0.306.
With CCCAUCACUUGAUUGCUUUTT against Kbtbd3 the z-score was inactive: -0.809.
With GGACAGCAUUAACAUUGUATT against Fbxo22 the z-score was inactive: -0.0485.
In the case of GGGCCUUCUGAUUUAAAAGTT against Slc43a3, the z-score is reported as inactive: 0.104.
In the case of AAUCCUGAUGCUACGCAUGTT against Phkg2, the z-score is reported as inactive: 1.76.
In the case of GGAUUCCCUAUCCCAUACCTT against Araf1, the z-score is reported as active: 4.36.
In the case of GGAGCUAAUCGCACUUAAATT against Tnnt3, the z-score is reported as inactive: -1.2.
With “GCCCAACUUUAAUCUUAUATT against D630039A03Rik” the z-score was inactive: 0.651.
For CCCAAGCCUACCUUACGAGTT against Hipk2, the z-score was inactive: 0.926.
For GGAGUUUAAGAAGACGCACTT against Slc26a3, the z-score was inactive: 0.0188.
For CGCUGUGCUGAGCUUACUUTT against D17H6S53E, the z-score was inactive: 0.556.
With “GGAUCGAACUGCCAUUGCUTT against A930104D05Rik” the z-score was inactive: -2.28.
In the case of “GGAGAGUGACUUGCAUUAUTT against 2310030G06Rik”, the z-score is reported as inactive: -0.736.
For GGAAACCUUUGAUUGUUCATT against Gm225, the z-score was inactive: -1.77.
For GCACAACGACCUUUCCAGGTT against Chst12, the z-score was inactive: 0.507.
For GGACUUCUUCUAUUUCAUATT against BC029169, the z-score was inactive: 0.891.
For CCCAGUUGAACAGAUUCCUTT against Olfr357, the z-score was inactive: -0.67.
With “GCCGAGUGAAUGAAAGGACTT against 4930579J09Rik” the z-score was inactive: 0.843.
In the case of GGCAUCGUCACCAAACUGUTT against Fgf11, the z-score is reported as inactive: -0.551.
In the case of GCUUCACCUGACAAUGACUTT against Dsipi, the z-score is reported as inactive: -0.426.
For GCAAGUAUGAGUGUCCCAUTT against Traf6, the z-score was inactive: -0.377.
With GCUACUGGUUGGGUUGAAGTT against Tbcd the z-score was inactive: -1.03.
With CCGAUUGAAUUACUCAGCATT against Bcas2 the z-score was inactive: -1.37.
With GCCCACAAGGAGUGCAUGATT against Cox17 the z-score was inactive: -2.05.
For “GGUACACUUUGUGCCUGGCTT against 2010002H18Rik”, the z-score was inactive: -0.828.
In the case of “GGAAGUUCGAUGUUCCUAGTT against 2410030J07Rik”, the z-score is reported as inactive: 0.957.
With “GCACCAAUUCCCUAACUGGTT against C230093N12Rik” the z-score was inactive: -1.49.
In the case of GGACGAAUGCUCAGGAGGUTT against BC034076, the z-score is reported as inactive: 0.0748.
In the case of GGACAACCUUUACUUCUCUTT against Psx2, the z-score is reported as inactive: -0.591.
With “GGACAAAAACAAAUGUGAGTT against 4933417A18Rik” the z-score was inactive: -0.31.
With CGGAUGAUGUAUUUAAAGATT against Ftcd the z-score was inactive: 0.28.
For GGAGGCAGUGUUUUGUCAATT against Fgd4, the z-score was inactive: 1.73.
With GCGACUGAUUCCUAUUAAATT against Myd88 the z-score was inactive: 0.152.
With GGCACAGAUGUUUUGAGAATT against Surf4 the z-score was inactive: -0.103.
With UUGAUUUGGUAGCCUGCUCTT against Olfr1303 the z-score was inactive: -1.35.
For GGUAACUCCAUUUUAUAGCTT against Adamts12, the z-score was inactive: -0.555.
In the case of GGAGCAGACUUUAAAAUGATT against Stau1, the z-score is reported as inactive: -0.151.
In the case of GGGCUGUCGUGAUUUUUGCTT against Grm7, the z-score is reported as inactive: -0.332.
With GGGAGAACCAGCACAACAUTT against Sdpr the z-score was inactive: 0.181.
In the case of CGCUAUGGAUAUAAACCAUTT against Pla2g12a, the z-score is reported as inactive: -0.788.
With CCCAGUGUCAUUCAGUAUUTT against Phactr3 the z-score was inactive: 0.768.
In the case of “GGAGCUUGACAUUCUGGAATT against 4632413C14Rik”, the z-score is reported as inactive: 1.77.
For “GCUUGAAUCCGAUUUGUUATT against 4921521N14Rik”, the z-score was inactive: -0.0999.
With CGGUAAGUUAAAGAAGACATT against Keo4 the z-score was inactive: 0.627.
